Measurements taken from the supplement of paper PMC6445147.
This is a noisy data set.

B1: human tRNA-Pro; a variant is named by its letters at N, in order (parent)
chain: GGCTCGTTGGTCTAGNGGTATGATTCTCGCTTAGGGTGCGAGAGGTCCCGGGTTCNNATCCCGGACGAGCCC

Variants of: B1
Assay: tRNA 5' processing efficiency (processed reads / all reads, maximum-likelihood estimate) (fraction); higher = more efficient 5' processing
Conditions: HEK293T; construct: CMV Pol-II promoter ((+)CMV library, decapped)

Variant	tRNA 5' processing efficiency
GGCTCGTTGGTCTGGGGGTATGATTCTCGCTTAGGGTGCGAGAGGTCCCGGGTTAAAAGCCCGGACGAGCCC [GAA A14G C55A T59G]	0.33
GGCTCGTTGGTCTACGAGTATGATTCTCGCTTAGGGTGCGAGAGGTCCCGGGTTCAAATCCCGGACGAGCCC [GAA G15C G17A]	0.14
GGCTCGTAGGTCTGGGGGTATGATTCTCGCTTAGGGTGCGAGAGGTCCCGGGATCCAATCCCGGACGAGCCC [GCA T8A A14G T53A]	0.33
GGCTCGTTGGTCTACGTGAATGATTCTCGCTTAGGGTGCGAGAGGTCCCGGGTTCAAATCCCGGACGAGCCC [GAA G15C G17T T19A]	0.2
GGCTCGTGGGTCTGGAGGTATGATTCTCGCTTAGGGTGCGAGAGGTCCCGGGTTTAAATCCCGGACGAGCCC [AAA T8G A14G C55T]	0.14
GGCTCGTAGGTCTTGGGGTATGATTCTCGCTTAGGGTGCGAGAGGTCCCGGGTTCTAATCCCGGACGAGCCC [GTA T8A A14T]	0.33
GGCTCGTTGGTCTAGCGGTATGATTCTCGCTTAGGGTGCGAGAGGTCCCGGGTGGAAATCCCGGACGAGCCC [CAA T54G C55G]	0.25
GGCTCGTTGGTCTACGGGCATGATTCTCGCTTAGGGTGCGAGAGGTCCCGGGTTTAGATCCCGGACGAGCCC [GAG G15C T19C C55T]	0.2
GGCTCGTTGGTCTACGGGTATGATTCTCGCTTAGGGTGCGAGAGGTCCCGGGGTAAAATCCCGGACGAGCCC [GAA G15C T53G C55A]	0.2
GGCTCGTGTGTCTGTGGGGATGATTCTCGCTTAGGGTGCGAGAGGTCCCGGGTTCAAATCCCGGACGAGCCC [GAA T8G G9T A14G G15T T19G]	0.17
GGCTCGTGAGTCTGGGGATATGATTCTCGCTTAGGGTGCGAGAGGTCCCGGGTTCAAATCCCGGACGAGCCC [GAA T8G G9A A14G G18A]	0.17
GGCTCGTTGGTCTATGGCCATGATTCTCGCTTAGGGTGCGAGAGGTCCCGGGTTCAAATCCCGGACGAGCCC [GAA G15T G18C T19C]	0.25
GGCTCGTTAGTCTAGTGGTATGATTCTCGCTTAGGGTGCGAGAGGTCCCGGGTTAAACTCCCGGACGAGCCC [TAA G9A C55A A58C]	0.25
GGCTCGTTGGTCTAGAATTATGATTCTCGCTTAGGGTGCGAGAGGTCCCGGGTTAAGATCCCGGACGAGCCC [AAG G17A G18T C55A]	0.4
GGCTCGTTGGTCTAGGGGCATGATTCTCGCTTAGGGTGCGAGAGGTCCCGGGGTCCAATCCCGGACGAGCCC [GCA T19C T53G]	0.2
GGCTCGTTGGTCTAGGGGTATGATTCTCGCTTAGGGTGCGAGAGGTCCCGGGTTCAGCGCCCGGACGAGCCC [GAG A58C T59G]	0.25
GGCTCGTTGGTCTTGGTGTGTGATTCTCGCTTAGGGTGCGAGAGGTCCCGGGTTCAACTCCCGGACGAGCCC [GAA A14T G17T A20G A58C]	0.22
GGCTCGTCAGTCTTGGGGAATGATTCTCGCTTAGGGTGCGAGAGGTCCCGGGTTCAAATCCCGGACGAGCCC [GAA T8C G9A A14T T19A]	0.5
GGCTCGTTGGTCTTTTGGTATGATTCTCGCTTAGGGTGCGAGAGGTCCCGGGTTGATATCCCGGACGAGCCC [TAT A14T G15T C55G]	0.17

Variant	tRNA 5' processing efficiency
GGCTCGTTGGTCTATGGGTATGATTCTCGCTTAGGGTGCGAGAGGTCCCGGGTTTAATTCCCGGACGAGCCC [GAA G15T C55T A58T]	0.25
GGCTCGTAGGTCTATGGGTATGATTCTCGCTTAGGGTGCGAGAGGTCCCGGGTGCCATTCCCGGACGAGCCC [GCA T8A G15T T54G A58T]	0.17
GGCTCGTTGGTCTAGGGGTATGATTCTCGCTTAGGGTGCGAGAGGTCCCGGGTTGAGTTCCCGGACGAGCCC [GAG C55G A58T]	0.33
GGCTCGTTGGTCTTGGTGGATGATTCTCGCTTAGGGTGCGAGAGGTCCCGGGTTCTAATCCCGGACGAGCCC [GTA A14T G17T T19G]	0.25
GGCTCGTATGTCTAGGGGTATGATTCTCGCTTAGGGTGCGAGAGGTCCCGGGTTCAATTCCCGGACGAGCCC [GAA T8A G9T A58T]	0.17
GGCTCGTTGGTCTAGATGTGTGATTCTCGCTTAGGGTGCGAGAGGTCCCGGGTTAATCTCCCGGACGAGCCC [AAT G17T A20G C55A A58C]	0.1
GGCTCGTTGGTCTAGGGGTATGATTCTCGCTTAGGGTGCGAGAGGTCCCGGGTTAACATCCCGGACGAGCCC [GAC C55A]	0.33
GGCTCGTTCGTCTAGGGGTATGATTCTCGCTTAGGGTGCGAGAGGTCCCGGGTTAAAATCCCGGACGAGCCC [GAA G9C C55A]	0.2
GGCTCGTTGGTCTAGGGATATGATTCTCGCTTAGGGTGCGAGAGGTCCCGGGGTATAAACCCGGACGAGCCC [GTA G18A T53G C55A T59A]	0.33
GGCTCGTTGGTCTGAGGGTATGATTCTCGCTTAGGGTGCGAGAGGTCCCGGGTTCCAATCCCGGACGAGCCC [GCA A14G G15A]	0.17
GGCTCGTTTGTCTAGCATTATGATTCTCGCTTAGGGTGCGAGAGGTCCCGGGGTAAAATCCCGGACGAGCCC [CAA G9T G17A G18T T53G C55A]	0.33
GGCTCGTTGGTCTATGCGTATGATTCTCGCTTAGGGTGCGAGAGGTCCCGGGAACGAATCCCGGACGAGCCC [GGA G15T G17C T53A T54A]	0.2
GGCTCGTGGGTCTATGGGCCTGATTCTCGCTTAGGGTGCGAGAGGTCCCGGGTTCAAACCCCGGACGAGCCC [GAA T8G G15T T19C A20C T59C]	0.2
GGCTCGTTGGTCTCGGGAGATGATTCTCGCTTAGGGTGCGAGAGGTCCCGGGAGCAAAACCCGGACGAGCCC [GAA A14C G18A T19G T53A T54G T59A]	0.33
GGCTCGTTGGTCTACGGATTTGATTCTCGCTTAGGGTGCGAGAGGTCCCGGGTTCAAATCCCGGACGAGCCC [GAA G15C G18A A20T]	0.25
GGCTCGTTAGTCTAGTGGTTTGATTCTCGCTTAGGGTGCGAGAGGTCCCGGGTTCAAATCCCGGACGAGCCC [TAA G9A A20T]	0.25
GGCTCGTATGTCTAACCGTATGATTCTCGCTTAGGGTGCGAGAGGTCCCGGGTTCAATTCCCGGACGAGCCC [CAA T8A G9T G15A G17C A58T]	0.25
GGCTCGTTGGTCTAGGGGTATGATTCTCGCTTAGGGTGCGAGAGGTCCCGGGTGAAAATCCCGGACGAGCCC [GAA T54G C55A]	0.1
GGCTCGTTGGTCTAAGGGTATGATTCTCGCTTAGGGTGCGAGAGGTCCCGGGCTAATCTCCCGGACGAGCCC [GAT G15A T53C C55A A58C]	0.17

Reprinted at random: 3 records from the list.
Variant	tRNA 5' processing efficiency
GGCTCGTTAGTCTAGTGGTTTGATTCTCGCTTAGGGTGCGAGAGGTCCCGGGTTCAAATCCCGGACGAGCCC [TAA G9A A20T]	0.25
GGCTCGTTGGTCTACGGGTATGATTCTCGCTTAGGGTGCGAGAGGTCCCGGGGTAAAATCCCGGACGAGCCC [GAA G15C T53G C55A]	0.2
GGCTCGTTGGTCTACGGATTTGATTCTCGCTTAGGGTGCGAGAGGTCCCGGGTTCAAATCCCGGACGAGCCC [GAA G15C G18A A20T]	0.25
